Laboratory results published in PubChem BioAssay AID504327 (National Center for Advancing Translational Sciences (NCATS), 2011).
About 820 (0.21%) of roughly 390,000 compounds were called active. The inconclusive results got no clear call from the source; some entries with a clear call stand among them for comparison. The call rests on the fitted dose curve; in most records, active means well fitted inhibition curve with a large enough effect; inconclusive means small, poorly fitted or top-dose-only effect, or another doubt; inactive means no such curve, though single readings can be large or run the other way. A potency beside an inconclusive call is a rough fit, not a confirmed value.

By UniProt entry, the sequences of proteins in these tests, tags left out.
UniProt Q92830, whole entry, looked up: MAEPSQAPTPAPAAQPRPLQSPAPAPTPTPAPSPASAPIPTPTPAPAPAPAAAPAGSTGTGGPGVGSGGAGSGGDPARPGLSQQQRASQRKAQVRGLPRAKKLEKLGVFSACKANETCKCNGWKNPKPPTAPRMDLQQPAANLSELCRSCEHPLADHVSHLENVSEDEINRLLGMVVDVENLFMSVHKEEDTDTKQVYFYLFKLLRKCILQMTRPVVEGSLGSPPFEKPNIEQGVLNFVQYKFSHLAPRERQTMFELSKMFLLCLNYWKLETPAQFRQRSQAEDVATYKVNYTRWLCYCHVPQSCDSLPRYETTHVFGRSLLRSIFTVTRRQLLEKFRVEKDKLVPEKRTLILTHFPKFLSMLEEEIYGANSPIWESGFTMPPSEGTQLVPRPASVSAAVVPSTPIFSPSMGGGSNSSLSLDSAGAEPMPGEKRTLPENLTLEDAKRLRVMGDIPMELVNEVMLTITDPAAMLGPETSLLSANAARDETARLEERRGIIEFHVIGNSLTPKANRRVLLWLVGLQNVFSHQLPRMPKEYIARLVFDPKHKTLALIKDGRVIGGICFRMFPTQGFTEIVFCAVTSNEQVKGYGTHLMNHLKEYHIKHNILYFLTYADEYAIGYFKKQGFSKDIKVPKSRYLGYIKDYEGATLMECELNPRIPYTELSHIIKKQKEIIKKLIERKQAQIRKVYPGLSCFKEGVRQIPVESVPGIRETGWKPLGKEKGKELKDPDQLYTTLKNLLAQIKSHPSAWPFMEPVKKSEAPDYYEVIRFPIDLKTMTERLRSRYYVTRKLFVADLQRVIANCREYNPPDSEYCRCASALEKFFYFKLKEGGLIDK

What follows are compounds tested against Histone acetyltransferase KAT2A (Homo sapiens) (UniProt Q92830) (assay: qHTS Assay for Inhibitors of GCN5L2). Conditions: GCN5L2 HAT assay, ThioGlo1 CoA-SH fluorescence; activity change, negative = inhibition: at 58.9 µM (top of the series) unless noted.
Method in brief: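 Preincubate 20nM GCN5L2 with compound 15 min, RT → add 50uM ThioGlo1 + 75uM H3(1-25) + 70uM acetyl-CoA → read fluorescence 0 and 20 min. Primary qHTS; fluorescent artifacts likely.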
On the % scale 0 is the no-effect control and ±100 the full control effect; potency means the concentration at half of the fitted maximal effect.

Structure (SMILES)	Potency	activity change, negative = inhibition
C=C(C)CC(NCc1ccco1)c1ccc(OC)cc1 (stereo not drawn)	inconclusive: 2.51 µM [inhibitor, single point]	–
CCC1=Nc2cc(C(=O)NCCN3CCOCC3)ccc2Sc2ccc(C)cc21	–	inactive: -5.37%
c1ccc(Cc2noc(CN3CCN(C4CCc5ccccc5C4)CC3)n2)cc1 (stereo not drawn)	–	inactive: -4.49%
CCN1CCN(C(=O)c2cc3c(s2)-c2c(C)cccc2OC3)CC1	inconclusive: 0.794 µM [inhibitor, single point]	–
COc1cc(C(=O)NC(=S)Nc2ccc3oc(=O)ccc3c2)cc(OC)c1OC	inconclusive: 7.08 µM [inhibitor, single point]	–
COc1ccc(CNC(=O)C(=O)NCC(c2cccnc2)N2CCN(c3ccccc3F)CC2)cc1 (stereo not drawn)	–	inactive: 1.18%
Cc1c(C(=O)N2CCc3ccccc3C2)oc2ccccc12	inconclusive: 31.6 µM [inhibitor, partial curve]	–
Cc1cccc(NS(=O)(=O)c2nnc(NC(=O)C3CCCCC3)s2)c1	inactive	–
O=C(Nc1ccc(O)c(-c2nc3ccccc3o2)c1)c1cccs1	inconclusive: 39.8 µM [inhibitor, single point]	–
O=C(CCNS(=O)(=O)c1cccs1)NCc1cccs1	inconclusive: 39.8 µM [inhibitor, partial curve, poor fit]	–
OC(COc1ccc(CNCCc2ccccc2F)cc1)CN1CCCCC1 (stereo not drawn)	–	inactive: -10.8%
O=C(Cn1cccc1C(=O)c1ccccc1)NCc1ccccn1	inconclusive: 0.794 µM [inhibitor, single point]	–
CNc1nc(N/N=C/c2ccc([N+](=O)[O-])cc2)nc(Nc2ccccc2)n1	–	inactive: -11.2%
CSc1ccc(/C=C/C(=O)c2c(O)cc(C)oc2=O)cc1	inconclusive: 31.6 µM [inhibitor, single point]	–
CCc1ccc(Sc2cc(C(=O)NCCCN3CCCC(C)C3)c3ccccc3n2)cc1 (stereo not drawn)	–	inactive: -4.6%
C=CCn1c(-c2cccc(OC)c2)nc2nc3ccccc3nc21	inconclusive: 39.8 µM [inhibitor, single point]	–
O=C(CCN1C(=O)C2C3C=CC(C3)C2C1=O)Nc1c(F)cc(F)cc1Br (stereo not drawn)	inconclusive: 0.112 µM [inhibitor, partial curve, poor fit]	–
COC(=O)C(Cc1c[nH]c2ccccc12)NC(=O)c1cc(-c2ccc(OC)c(OC)c2)oc1C (stereo not drawn)	–	inactive: 1.51%
COc1ccc(N2CCN(C(c3cccs3)c3nnnn3C3CCCC3)CC2)cc1 (stereo not drawn)	inconclusive: 39.8 µM [inhibitor, single point]	–
C/C(=N\NC(=O)c1cccc(S(=O)(=O)N2CCOCC2)c1)c1ccc(C#N)cc1	inconclusive: 11.2 µM [inhibitor, partial curve]	–
Cc1ccsc1C(=O)NNC(=O)c1csc(N2CCOCC2)n1	inconclusive: 4.47 µM [inhibitor, full curve, poor fit]	–
O=S(=O)(Cc1ccccc1Cl)c1ncn[nH]1	–	inactive: -7.1%
COC(=O)c1ccc(NS(=O)(=O)c2cc(C)ccc2OC)cc1	inconclusive: 39.8 µM [inhibitor, single point]	–

Taken from above.
OC(COc1ccc(CNCCc2ccccc2F)cc1)CN1CCCCC1 (stereo not drawn) – activity change, negative = inhibition: inactive: -10.8%
CSc1ccc(/C=C/C(=O)c2c(O)cc(C)oc2=O)cc1 – Potency: inconclusive: 31.6 µM [inhibitor, single point]
C=CCn1c(-c2cccc(OC)c2)nc2nc3ccccc3nc21 – Potency: inconclusive: 39.8 µM [inhibitor, single point]

(cont.)

Structure (SMILES)	Potency	activity change, negative = inhibition
COc1ccc(-c2nn(-c3ccccc3)cc2/C=N/NC(=O)c2ccc(Br)o2)cc1	active: 25.1 µM	–
Cc1ccc(/C=N/NC(=O)c2ccc(OC3CCCC3)cc2)o1	inconclusive: 5.62 µM [inhibitor, single point]	–
Cc1ccc(S(=O)(=O)N(C)c2ccc(C(=O)NCCc3ccccc3)cc2)cc1	inconclusive: 0.631 µM [inhibitor, single point]	–
O=c1[nH]c(CN2CCc3ccccc32)nc2scc(-c3cccs3)c12	inconclusive: 11.2 µM [inhibitor, partial curve]	–
COc1ccc(N(C)C(=O)Cc2c(C(=O)O)n(C)c3ccccc23)cc1	inconclusive: 12.6 µM [inhibitor, partial curve, poor fit]	–
CCc1ccc(-n2c(=O)c3cccnc3n2CC(=O)Nc2cc(OC)ccc2OC)cc1	inconclusive: 28.2 µM [inhibitor, single point]	–
CC(=O)c1ccc(OC(=O)CN2C(=O)c3ccccc3C2=O)cc1	inconclusive: 7.08 µM [inhibitor, single point]	–
CC(C)(C)c1cc(O)c(C(C)(C)C)cc1O	inactive	–
O=C(c1ccc(NC2=NC3CS(=O)(=O)CC3S2)cc1)N1CCc2ccccc2C1 (stereo not drawn)	inconclusive: 39.8 µM [inhibitor, single point]	–
Cc1cccc(NC(=O)c2ccc(S(=O)(=O)N3CCCCC3)cc2)c1	inconclusive: 39.8 µM [inhibitor, single point]	–
CCCCCCCCn1c2c(c(=N)c3ccccc31)CCC2	–	inactive: -5.78%
CCOC(=O)N1CCN(C(=O)CCNS(=O)(=O)c2ccccc2)CC1	inconclusive: 1 µM [inhibitor, full curve, poor fit]	–
CC(C)c1cc(C(=O)NNC(=S)NCc2ccco2)c(O)c(C(C)C)c1	inconclusive: 1.58 µM [inhibitor, full curve, poor fit]	–
CC1=CC(C)(C)NC(=S)N1c1cccc(C)c1	inconclusive: 3.16 µM [inhibitor, single point]	–
CCOC(=O)C(C)Sc1nc(=O)n2ccccc2n1 (stereo not drawn)	–	inactive: 0.131%
Cc1c(CN(C)C(=O)c2sc3cc(Cl)ccc3c2Cl)cnn1C	inconclusive: 0.794 µM [inhibitor, partial curve, poor fit]	–
COc1cc(C2C(C#N)=C(N)OC3=C2C(=O)CC(C)(C)C3)c([N+](=O)[O-])cc1OC (stereo not drawn)	inconclusive: 8.91 µM [inhibitor, single point]	–
O=Cc1c(Cl)nc2ccccn2c1=O	inconclusive: 35.5 µM [inhibitor, single point]	–
COc1ccc(Br)c(-c2nc(CS(=O)(=O)c3ccc(F)cc3)no2)c1	inconclusive: 39.8 µM [inhibitor, single point]	–
CCNc1ncc2nc(-c3ccc(F)cc3)c(=O)n(CCC#N)c2n1	inconclusive: 39.8 µM [inhibitor, single point]	–
COc1ccc(N(CC(=O)N/N=C/c2ccc(C(=O)O)cc2)S(=O)(=O)c2ccc(NC(C)=O)cc2)cc1	inconclusive: 2.51 µM [inhibitor, partial curve, poor fit]	–
Nc1ccc2nc(-c3ccc(O)cc3)sc2c1	inconclusive: 10 µM [inhibitor, partial curve, poor fit]	–
CCCCCCNC(=O)c1cc(S(=O)(=O)N2CCc3ccccc32)ccc1F	–	inactive: 10.2%

Structure (SMILES)	Potency	activity change, negative = inhibition
Clc1ccc(Cl)c(OCCCCN2CCCCC2)c1	–	inactive: 0.997%
N/C(=N\NC(=O)c1ccccc1Cl)c1cc2ccccc2oc1=O	–	inactive: -3.36%
O=C(CCCN1C(=O)/C(=C\c2cccs2)SC1=S)Nc1ccc(O)cc1C(=O)O	–	inactive: -14.8%
CCN(CC)S(=O)(=O)c1ccc(OC)c(NC(=O)COc2ccccc2[N+](=O)[O-])c1	inconclusive: 3.98 µM [inhibitor, single point]	–
CCC1(C)Cc2ccccc2-c2nc(SCC(N)=O)[nH]c(=O)c21 (stereo not drawn)	inconclusive: 39.8 µM [inhibitor, single point]	–
O=C(COc1ccc(F)cc1)Nc1c(C(=O)N2CCC(N3CCCCC3)CC2)oc2ccccc12	inconclusive: 22.4 µM [inhibitor, single point]	–
CO/N=C(/C(=O)N[C@@H]1C(=O)N2C(C(=O)O)=C(COC(N)=O)CS[C@H]12)c1ccco1	inconclusive: 39.8 µM [inhibitor, single point]	–
CSc1ncccc1C(=O)NC1CC(C)(C)Cc2c1cnn2-c1ccccc1C (stereo not drawn)	inconclusive: 1.12 µM [inhibitor, full curve, poor fit]	–
N#Cc1c(-c2ccc(F)cc2)cc(-c2ccccc2)nc1SCC(=O)NCC(=O)O	inconclusive: 0.1 µM [inhibitor, full curve, poor fit]	–
CN(C)Cc1c(O)c(Cl)cc2c3c(c(=O)oc12)CCCC3	inconclusive: 31.6 µM [inhibitor, single point]	–
Cc1ccc2[nH]c(C(=O)Nc3ccccc3)cc2c1	–	inactive: -7.72%
O=Cc1cccc(OC(=O)/C=C/c2ccco2)c1	inconclusive: 31.6 µM [inhibitor, single point]	–
CC(C)Cc1nnc(NC(=O)c2cc([N+](=O)[O-])ccc2N2CCOCC2)s1	inconclusive: 7.08 µM [inhibitor, single point]	–
Cc1cccc(-n2nc(C)cc2N)c1	inconclusive: 0.141 µM [inhibitor, full curve, poor fit]	–
Cc1c(C)c2c(OCC(=O)N3CCC(C(=O)O)CC3)cc3c(c2oc1=O)CCC(C)(C)O3	active: 15.8 µM	–
COc1ccccc1CNC(=O)CCNC(=O)N1CC(=O)Nc2ccccc21	inconclusive: 0.562 µM [inhibitor, full curve, poor fit]	–
Clc1ccc(OCCCc2nc(-c3ccncc3)no2)c(Cl)c1	inconclusive: 0.891 µM [inhibitor, single point]	–
COc1ccc(Nc2nc(C)nc3c2nnn3Cc2ccccc2)cc1OC	inconclusive: 39.8 µM [inhibitor, single point]	–
Cc1ccc(NC(=O)c2c(C)oc3ccc(O)c(CN4CCOCC4)c23)c(C)c1	–	inactive: 1.17%
CCCCC[C@@H]1C=C(C(=O)O)[C@H](c2ccc(Cl)c(Cl)c2)N1S(=O)(=O)c1ccc(C)cc1	inconclusive: 31.6 µM [inhibitor, single point]	–
COc1ccc(/C=C2\Oc3cc(OCC(=O)N4CCC(C(=O)O)CC4)ccc3C2=O)c(OC)c1	–	inactive: -20.3%
COc1ccc(-c2cc(C(=O)Nc3sc4c(c3C#N)CCCC4)c3ccccc3n2)cc1	–	inactive: -10.8%
